Some of the results follow. The main result of the screen is listed elsewhere. These columns were measured beside it and carry no call. Compounds called inactive in the main read-out are mostly missing here. Potencies come from curve fits of mixed quality, noted in brackets.
Experiment: qHTS Assay to Find Inhibitors of Chronic Active B-Cell Receptor Signaling
Conditions: ABC-DLBCL IkBa-CBG/CBR reporter, luminescence ratio (green luciferase fused to IkBa over red control in TMD8 lymphoma cells), 4 h
Summary of the method: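 Compounds up to 46 uM were incubated four hours with TMD8 cells whose green CBG68 luciferase is fused to IkappaBalpha; red CBR luminescence normalised the signal, and concentration-effect curves were fitted to fusion, red and ratio data.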

[1] = measured here: CBR red luminescence, cell number
[2] = measured here: IkBa-CBG green luminescence

| SMILES | AC50 [1] | AC50 [2] |
| --- | --- | --- |
| COc1ccc(NC(=O)c2ccc3c(c2)C(=O)N(Cc2ccncc2)C3=O)cc1S(N)(=O)=O | 18.4 µM [rising, single point] | – |
| CC1(C)C2CC=C(/C=N/NC(=O)c3ccccc3Br)C1C2 (stereo not drawn) | 14.6 µM [falling, partial curve, poor fit] | – |
| Cc1cccnc1Nc1nc(-c2ccccc2)cs1 | 11.2 µM [falling, partial curve, poor fit] | – |
| O=C(Nc1nc2c(s1)CCc1ccccc1-2)c1cccs1 | 15.8 µM [falling, single point] | – |
| Cc1cccc2cc(C#N)c(SCC#N)nc12 | 2.82 µM [falling, full curve, poor fit] | – |
| O=C(Nc1sc2c(c1C(=O)O)CCC2)c1cccc(Cl)c1 | 0.282 µM [falling, full curve] | – |
| O=C(N/N=C/c1cccs1)C(O)c1ccccc1 (stereo not drawn) | 17.8 µM [falling, single point] | – |
| CSCC[C@H](N)C(=O)NC[C@H]1CC[C@H](C(=O)N[C@@H](Cc2ccccc2)C(=O)O)CC1 | 14.1 µM [rising, single point] | – |
| O=C(Nc1ccc(S(=O)(=O)N2CCCCCC2)cc1)C1CCCO1 (stereo not drawn) | 23.1 µM [rising, partial curve] | – |
| Cc1nc(NC(=O)c2ccccc2)sc1C | 15.8 µM [falling, single point] | – |
| N#Cc1ccccc1NC(=O)COC(=O)CN1C(=O)C2CCCCC2C1=O (stereo not drawn) | 3.66 µM [rising, full curve, poor fit] | – |
| CCOC(=O)c1nnn(-c2nonc2N)c1-c1cccc2ccccc12 | 14.6 µM [falling, partial curve, poor fit] | – |
| COc1cccc2oc3cc(C#CC4(O)CCCCC4)ccc3c(=O)c12 | 7.08 µM [falling, partial curve] | 3.98 µM [rising, full curve] |
| COc1cc(/C=N/Nc2nncc3ccccc23)cc(OC)c1OC | 12.6 µM [falling, partial curve] | – |
| COc1cccc(-c2nc(-c3ccc(NC(=O)c4cccs4)cc3)no2)c1 | 1.41 µM [rising, partial curve, poor fit] | – |
| COC(=O)C1=C(C)N(c2ccc(F)cc2)C(=O)C1 | 6.51 µM [falling, partial curve] | – |
| S=C(Nc1ccc(Oc2ccccc2)cc1)NC1CCCCC1 | 25.9 µM [falling, single point] | – |
| CN(CC(=O)Nc1ccc(N2CCOCC2)cc1)CC(=O)Nc1ccccc1[N+](=O)[O-] | 5.8 µM [rising, partial curve, poor fit] | – |
| COc1ccccc1NC(=O)C(=O)/C=C(\O)c1ccccc1 | 11.2 µM [falling, partial curve] | – |
| CC(C)CN(CC(C)C)C(=O)Nc1ccccc1F | 35.5 µM [rising, single point] | – |
| O=C(Nc1ccc2nccnc2c1)Nc1ccccc1Cl | 4.47 µM [falling, full curve] | – |
| O=C1CCC(C(=O)N(Cc2ccco2)C2(C(=O)NC3CCCC3)CCCCC2)N1 (stereo not drawn) | 29.1 µM [rising, single point] | – |

Record cards, as listed above:
COc1ccccc1NC(=O)C(=O)/C=C(\O)c1ccccc1 as listed: AC50 [1]: 11.2 µM [falling, partial curve]
O=C(N/N=C/c1cccs1)C(O)c1ccccc1 (stereo not drawn) as listed: AC50 [1]: 17.8 µM [falling, single point]

The listing continues:

| SMILES | AC50 [1] | AC50 [2] |
| --- | --- | --- |
| O=C(c1ccco1)c1nc2c(n1O)CCCCC2 | 0.103 µM [falling, full curve, poor fit] | – |
| O=C(NC(=S)Nc1ccc2c(c1)OCCO2)c1ccco1 | 17.8 µM [falling, single point] | – |
| COc1nccnc1NS(=O)(=O)c1ccc(NC(=S)NC(=O)c2cccc(F)c2)cc1 | – | 20.6 µM [rising, partial curve, poor fit] |
| C=C(C)C(=O)OC1(C(F)(F)F)Oc2cc(C)ccc2NC1=O (stereo not drawn) | 14.1 µM [falling, single point] | – |
| CC1CCCN(C2(O)C(=O)Nc3ccc(Br)cc32)C1 (stereo not drawn) | 8.91 µM [rising, partial curve, poor fit] | – |
| Cc1cc(NC(=O)CSc2nnc(C)c(=O)n2N)no1 | 14.1 µM [falling, single point] | – |
| N/C(=N\OC(=O)c1ccco1)c1ccc(Cl)cc1 | 10 µM [rising, single point] | – |
| CN(CC(=O)Nc1cccc(C#N)c1)S(=O)(=O)c1cc2c(cc1Cl)NC(=O)CO2 | 0.891 µM [rising, full curve, poor fit] | – |
| O=C(O)c1ccccc1-c1ccccc1C(=O)Nc1cccc(-c2nc3ccccc3o2)c1 | 35.5 µM [falling, single point] | – |
| COC(=O)C1=C(C)N(c2cccc(Cl)c2)C(=O)C1 | 1.46 µM [falling, partial curve, poor fit] | – |
| COC(=O)c1c(NC(NC(=O)C(C)C)C(Cl)(Cl)Cl)sc2c1CCC2 (stereo not drawn) | 11.6 µM [falling, partial curve, poor fit] | 18.4 µM [rising, partial curve, poor fit] |
| C/C(=N/NC(=O)c1cc(C2CC2)[nH]n1)c1cccs1 | 25.9 µM [falling, partial curve] | – |
| O=C(COC(=O)CCNS(=O)(=O)c1ccccc1F)Nc1nnc(-c2ccccc2)o1 | 2.91 µM [falling, full curve] | – |
| Cc1ccccc1N1C(=O)CC(Sc2nnc(-c3ccccc3)o2)C1=O (stereo not drawn) | 35.5 µM [falling, single point] | – |
| O=C(Nc1cccc(S(=O)(=O)N2CCCCC2)c1)c1ccc([N+](=O)[O-])o1 | 22.4 µM [falling, single point] | – |
| O=C1COc2ccccc2N1Cc1ccccc1Cl | 20 µM [rising, single point] | – |
| Cc1ccc(C2=NN3C(=O)c4ccccc4C3C2)cc1 (stereo not drawn) | 0.112 µM [rising, full curve, poor fit] | – |
| O=C(CN1CCOCC1)NCc1ccccc1Cl | 2.24 µM [rising, partial curve] | – |
| CCOC(=O)C1(Cc2cccc(Cl)c2)CCCN(C(=O)c2cc(C(C)C)nn2C)C1 (stereo not drawn) | 11.2 µM [falling, single point] | – |
| CCc1ccc(C(=O)NNC(=O)OC)cc1 | 7.94 µM [rising, partial curve, poor fit] | – |
| CCc1nnc(NC(=O)c2ccc(-c3ccccc3Cl)o2)s1 | 1.84 µM [rising, full curve, poor fit] | – |
| O=C(Cc1ccc(Cl)c(Cl)c1)Nc1cccc2ncccc12 | 22.4 µM [falling, single point] | – |

| SMILES | AC50 [1] | AC50 [2] |
| --- | --- | --- |
| C/C(Cn1cnc([N+](=O)[O-])n1)=N\NC(=O)c1ccc(O)cc1O | 1.41 µM [falling, full curve, poor fit] | – |
| CC1Sc2ccc(S(=O)(=O)CCC(=O)NCc3ccc(Cl)cc3)cc2NC1=O (stereo not drawn) | 7.94 µM [falling, partial curve, poor fit] | – |
| CCCCNC(=O)c1sc2nc(C)cc(COC)c2c1-n1cccc1 | 0.316 µM [falling, full curve, poor fit] | – |
| C/C(=N\OCc1ccc(C#N)cc1)c1cc2ccccc2o1 | 7.08 µM [rising, partial curve] | – |
| CC(C)Oc1ccc(S(=O)(=O)N2CCOCC2)cc1NC(=O)CN1C(=O)NC2(CCCC2)C1=O | 2.82 µM [rising, partial curve, poor fit] | – |
| Cc1nnsc1-c1onc(C)c1C(=O)Nc1cc(Cl)cc(Cl)c1 | 35.5 µM [falling, partial curve, poor fit] | – |
| COc1ccc(NC(=O)CSC2=Nc3ccccc3C3=NC(CCC(=O)NCCc4ccccc4)C(=O)N23)cc1 (stereo not drawn) | 6.31 µM [rising, partial curve, poor fit] | – |
| O=C(COc1ccccc1)Nn1cnc2ccccc21 | 20 µM [falling, partial curve, poor fit] | – |
| Cn1cccc1C(=S)N1CCOCC1 | 2.31 µM [rising, partial curve] | – |
| COC(=O)c1ccc(CSc2nnc(C)s2)cc1 | 3.98 µM [rising, partial curve] | – |
| CC(C)C[C@H]1CN=C(Nc2ccccc2)N1CCCCc1ccccc1 | 35.5 µM [falling, single point] | – |
| N/C(=N\OC(=O)CC1CCCCC1)c1ccccn1 | 17.8 µM [falling, partial curve] | – |
| CCN(CC)c1ccc(/C=N/N2CC(=O)NC2=S)cc1 | 0.92 µM [rising, full curve, poor fit] | – |
| O=C(NC1CC1)C1CCC(=O)N1C1CCCC1 (stereo not drawn) | 1.16 µM [falling, full curve, poor fit] | – |
| COc1ccc(S(=O)(=O)N2CCOC2CNC(=O)C(=O)NCC(C)C)cc1OC (stereo not drawn) | 28.2 µM [falling, single point] | – |
| O=C(NCCc1cccs1)c1ccc(CS(=O)Cc2ccc(Cl)cc2)o1 (stereo not drawn) | 3.55 µM [falling, partial curve, poor fit] | – |
| CCc1sc(C(=O)Nc2cc(Cl)ccc2N2CCCCC2)cc1C | 5.8 µM [falling, partial curve, poor fit] | – |
| COc1cccc(N/C(SC)=C(/C#N)C(N)=O)c1 | 35.5 µM [falling, single point] | – |
| Cc1cc(F)ccc1S(=O)(=O)Nc1ccccc1C(=O)Nc1ccccc1-c1nc2ccccc2[nH]1 | 29.1 µM [falling, single point] | – |
| O=C(c1cc(-c2ccc(O)cc2)on1)N1CCCCCC1 | 6.31 µM [falling, partial curve] | – |
| NNC(=O)c1ccc(O)cc1O | 16.4 µM [falling, partial curve] | – |
| CCCc1cc(=O)n2[nH]c(-c3ccc(Cl)cc3)cc2n1 | 6.31 µM [falling, partial curve] | – |

From PubChem BioAssay AID493014 (National Center for Advancing Translational Sciences (NCATS), 2011)
